PubChem BioAssay AID652272 – Drosophila RNAi Screening Center | 2013
Assay: 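Genome-wide knock-down search for components of Hedgehog signalling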 (primary screen). Cell system: Drosophila clone 8 (Cl8) cells. Reagents: long dsRNA against Drosophila genes. Read-out: 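Plate reader light from a firefly reporter under a ptc promoter fragment that responds to Hedgehog, with Renilla light as transfection reference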. Scale: firefly Hh reporter signal: higher = more ptc reporter light; Renilla reference signal: higher = more Renilla control light. Hit rule: 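Called a hit if the two-replicate mean z-score lies below -2 or above +3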. Meaning of the calls: active = hit: reporter lowered or raised; inactive = not a hit.
The screen tested about 21,000 reagents; below is a random part of those with a known target gene and a result. Over the whole deposit, 503 (2.4%) are marked active. 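Raw plate light values, not normalised; calls rest on replicate z-scores that were not deposited; hits include reporter decreases as well as increases.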 Reagents against one gene are numbered here. Not stated in the record: the amount of reagent, the time to read-out.

| gene | dsRNA no. | firefly Hh reporter signal, replicate 1 | firefly Hh reporter signal, replicate 2 | firefly Hh reporter signal, replicate 3 | Renilla reference signal, replicate 1 | Renilla reference signal, replicate 2 | Outcome |
| --- | --- | --- | --- | --- | --- | --- | --- |
| spir (spire) | 1 | 87112 | 57242 | – | 2189 | 5941 | inactive |
| CG2267 | 1 | 78912 | 99748 | – | 2343 | 2456 | inactive |
| Cpr31A (Cuticular protein 31A) | 1 | 85104 | 45680 | – | 2357 | 4935 | inactive |
| CG18048 | 1 | 64570 | 92921 | – | 2272 | 2784 | inactive |
| CG5721 | 1 | 1.11e5 | 71184 | – | 5474 | 2829 | inactive |
| CG14817 | 1 | 87437 | 2.42e5 | – | 3757 | 8067 | inactive |
| E2f1 (E2F transcription factor 1) | 1 | 7.69e5 | 1.67e5 | – | 36579 | 2361 | inactive |
| CG14839 | 1 | 1.21e5 | 1.42e5 | – | 3920 | 4502 | inactive |
| Odc2 (Ornithine decarboxylase 2) | 1 | 70260 | 49824 | – | 1819 | 4618 | inactive |
| muc (midline uncoordinated) | 1 | 1.67e5 | 80561 | – | 4267 | 7508 | inactive |
| CG42788 | 1 | 80722 | 80038 | – | 2265 | 2473 | inactive |
| CG42788 | 2 | 68192 | 1.00e5 | – | 2368 | 2916 | inactive |
| CG42788 | 3 | 50247 | 87416 | – | 1175 | 2260 | inactive |
| CG13016 | 1 | 1.22e5 | 39424 | – | 2582 | 153 | inactive |
| Octalpha2R (alpha2-adrenergic-like octopamine receptor) | 1 | 49531 | 2.50e5 | – | 10962 | 5963 | inactive |
| Octalpha2R (alpha2-adrenergic-like octopamine receptor) | 2 | 4.62e5 | 1.28e5 | – | 20421 | 3560 | inactive |
| Hug (Hugin) | 1 | 1.07e5 | 1.24e5 | – | 2753 | 2979 | inactive |
| CG30026 | 1 | 1.53e5 | 3.25e5 | – | 4163 | 10588 | inactive |
| CG33258 | 1 | 1.95e5 | – | – | 4985 | – | inactive |
| Ts (Thymidylate synthase) | 1 | 1.51e5 | 86488 | – | 1992 | 7945 | inactive |
| CG14646 | 1 | 1.76e5 | 7.10e5 | 1.05e5 | 6402 | 38692 | inactive |
| Eig71Eg (Ecdysone-induced gene 71Eg) | 1 | 1.66e5 | – | – | 6117 | 4820 | inactive |
| SPH93 (Serine protease homolog 93) | 1 | 1.21e5 | 66276 | – | 3184 | 6118 | inactive |
| Prosbeta2R1 (Proteasome beta2 subunit-related 1) | 1 | 1.25e5 | 2.75e5 | – | 4387 | 10368 | inactive |
| thoc6 | 1 | 79741 | 50720 | – | 3677 | 2081 | inactive |
| mRpL19 (mitochondrial ribosomal protein L19) | 1 | 1.10e5 | 7.17e5 | 1.84e5 | 4550 | 5237 | inactive |
| CG13676 | 1 | 49021 | 39515 | – | 3833 | 2064 | inactive |
| CG10814 | 1 | 99639 | 62961 | – | 3820 | 2471 | inactive |
| Tango1 (Transport and Golgi organization 1) | 1 | 57725 | 44756 | – | 2827 | 1539 | inactive |
| ap (apterous) | 1 | 94129 | 68329 | – | 3259 | 2241 | inactive |
| CG1703 | 1 | 1.03e5 | 58504 | – | 2580 | 1650 | inactive |
| CG15443 | 1 | 1.15e5 | 52648 | – | 3436 | 4289 | inactive |
| CG5455 | 1 | 81296 | 1.04e5 | – | 1921 | 2826 | inactive |
| ytr (yantar) | 1 | 1.10e5 | 1.47e5 | – | 4896 | 4949 | inactive |
| Npc1a (Niemann-Pick type C-1a) | 1 | 67160 | 45324 | – | 2115 | 3798 | inactive |
| CG1662 | 1 | 1.10e5 | 95968 | – | 3044 | 1995 | inactive |
| fred (friend of echinoid) | 1 | 1.61e5 | 69089 | – | 4393 | 6673 | inactive |
| fred (friend of echinoid) | 2 | 1.82e5 | 5.31e5 | 81232 | 5014 | 31115 | inactive |
| fred (friend of echinoid) | 3 | 82816 | 50807 | – | 2086 | 4876 | inactive |
| fred (friend of echinoid) | 4 | 95776 | 70758 | – | 2848 | 6274 | inactive |
| Mppe (Metallophosphoesterase) | 1 | 57216 | 55346 | – | 3186 | 2113 | inactive |
| Rab3-GAP (Rab3 GTPase activating protein) | 1 | 1.52e5 | 89008 | – | 6247 | 4104 | inactive |
| CG11777 | 1 | 1.22e5 | 60867 | – | 2857 | 5478 | inactive |
| CG3251 | 1 | 89829 | 41280 | – | 2468 | 3483 | inactive |
| CG7953 | 1 | 88887 | 47361 | – | 4017 | 2226 | inactive |
| CG42680 | 1 | 1.65e5 | 3.00e5 | – | 4793 | 14666 | inactive |
| GAA1 (Glycosylphosphatidylinositol anchor attachment 1) | 1 | 1.02e5 | 80133 | – | 2358 | 1856 | inactive |
| CG11703 | 1 | 99568 | 79280 | – | 4297 | 3820 | inactive |
| Poxn (Pox neuro) | 1 | 1.46e5 | 3.81e5 | – | 3917 | 15891 | inactive |
| Poxn (Pox neuro) | 2 | 78273 | 68064 | – | 779 | 4369 | inactive |
| IntS11 (Integrator 11) | 1 | 1.03e5 | 65817 | – | 2628 | 2220 | inactive |
| Lis-1 (Lissencephaly-1) | 1 | 1.14e5 | 46791 | – | 2938 | 3320 | inactive |
| lama (lamina ancestor) | 1 | 1.05e5 | 33501 | – | 4448 | 1458 | inactive |
| CG14330 | 1 | 80632 | 99277 | – | 1992 | 2490 | inactive |
| Adsl (Adenylosuccinate lyase) | 1 | 93463 | 73189 | – | 3718 | 2776 | inactive |
| CG10907 | 1 | 43192 | 45403 | 50770 | 4529 | 4099 | inactive |
| RNF220 (ring finger protein 220) | 1 | 1.27e5 | 90226 | – | 5526 | 3928 | inactive |

In a second layout: 5 of the entries above.
fred (friend of echinoid) #4
- firefly Hh reporter signal, replicate 1: 95776
- firefly Hh reporter signal, replicate 2: 70758
- Renilla reference signal, replicate 1: 2848
- Renilla reference signal, replicate 2: 6274
- Outcome: inactive

Mppe (Metallophosphoesterase)
- firefly Hh reporter signal, replicate 1: 57216
- firefly Hh reporter signal, replicate 2: 55346
- Renilla reference signal, replicate 1: 3186
- Renilla reference signal, replicate 2: 2113
- Outcome: inactive

Rab3-GAP (Rab3 GTPase activating protein)
- firefly Hh reporter signal, replicate 1: 1.52e5
- firefly Hh reporter signal, replicate 2: 89008
- Renilla reference signal, replicate 1: 6247
- Renilla reference signal, replicate 2: 4104
- Outcome: inactive

CG11777
- firefly Hh reporter signal, replicate 1: 1.22e5
- firefly Hh reporter signal, replicate 2: 60867
- Renilla reference signal, replicate 1: 2857
- Renilla reference signal, replicate 2: 5478
- Outcome: inactive

CG3251
- firefly Hh reporter signal, replicate 1: 89829
- firefly Hh reporter signal, replicate 2: 41280
- Renilla reference signal, replicate 1: 2468
- Renilla reference signal, replicate 2: 3483
- Outcome: inactive
